A negative result means that nothing was seen under these conditions. At least one verdict was read from the data and is not stated in words by the source. For part of these data: Tags and fusion partners may be left off the protein sequences shown.
What was measured:
Assay in all cases: sandwich SERRS lateral-flow assay
[1] = target: B-type natriuretic peptide (BNP) (UniProt P16860); conditions: 0.1 ng/ml, signal in background range, running buffer PBS with 0.25% Tween, sample pad pretreated with 0.05 M Tris pH 7.6, 0.15 M NaCl, 0.25% Triton X-100, assay temperature not stated, commercial protein, single-stranded DNA
[2] = target: heart-type fatty acid-binding protein (h-FABP) (UniProt P05413); conditions: 0.1 ng/ml, signal above CRP and BNP but in background range, running buffer PBS with 0.25% Tween, sample pad pretreated with 0.05 M Tris pH 7.6, 0.15 M NaCl, 0.25% Triton X-100, assay temperature not stated, commercial protein, single-stranded DNA
C-reactive protein (CRP) = target: T1, C-reactive protein (CRP) (UniProt P02741); conditions: 0.1 ng/ml, signal in background range, running buffer PBS with 0.25% Tween, sample pad pretreated with 0.05 M Tris pH 7.6, 0.15 M NaCl, 0.25% Triton X-100, assay temperature not stated, commercial protein, single-stranded DNA
T1 sequence (looked up, limits assumed): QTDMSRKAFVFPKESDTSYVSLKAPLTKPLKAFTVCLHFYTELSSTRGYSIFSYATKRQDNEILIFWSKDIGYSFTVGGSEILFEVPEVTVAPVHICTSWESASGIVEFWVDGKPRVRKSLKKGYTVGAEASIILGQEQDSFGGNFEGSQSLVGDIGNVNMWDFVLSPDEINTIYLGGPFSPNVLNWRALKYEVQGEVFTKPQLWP

Amino acid sequences for entries named in this document (tags omitted). Residues count along the entry.
UniProt P16860, 103-134: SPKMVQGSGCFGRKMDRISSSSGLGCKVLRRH
UniProt P05413, 2-133: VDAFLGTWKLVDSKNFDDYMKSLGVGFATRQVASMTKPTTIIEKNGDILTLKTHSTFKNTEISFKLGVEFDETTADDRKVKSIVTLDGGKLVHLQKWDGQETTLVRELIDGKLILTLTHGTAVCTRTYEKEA

[3] = sandwich with N1, 5'-amine-spacer 18-spacer 18

Measured: binding result

CGCATGCCAAACGTTGCCTCATAGTTCCCTCCCCGTGTCC [secondary cTnI aptamer]
no binding: [1]; [3] | [2]; [3] | C-reactive protein (CRP); [3]

TTTTTTCGTGCAGTACGCCAACCTTTCTCATGCGCTGCCCCTCTTA [primary cTnI aptamer]
no binding: [1]; sandwich with N2, 5'-biotin | [2]; sandwich with N2, 5'-biotin | C-reactive protein (CRP); sandwich with N2, 5'-biotin
